{"source": "patent US20150218258", "key": {"[1]": {"molecular_target": "T1, PTK7 (protein tyrosine kinase 7) on Jurkat cells (UniProt Q13308)", "T1 sequence (looked up, limits assumed)": "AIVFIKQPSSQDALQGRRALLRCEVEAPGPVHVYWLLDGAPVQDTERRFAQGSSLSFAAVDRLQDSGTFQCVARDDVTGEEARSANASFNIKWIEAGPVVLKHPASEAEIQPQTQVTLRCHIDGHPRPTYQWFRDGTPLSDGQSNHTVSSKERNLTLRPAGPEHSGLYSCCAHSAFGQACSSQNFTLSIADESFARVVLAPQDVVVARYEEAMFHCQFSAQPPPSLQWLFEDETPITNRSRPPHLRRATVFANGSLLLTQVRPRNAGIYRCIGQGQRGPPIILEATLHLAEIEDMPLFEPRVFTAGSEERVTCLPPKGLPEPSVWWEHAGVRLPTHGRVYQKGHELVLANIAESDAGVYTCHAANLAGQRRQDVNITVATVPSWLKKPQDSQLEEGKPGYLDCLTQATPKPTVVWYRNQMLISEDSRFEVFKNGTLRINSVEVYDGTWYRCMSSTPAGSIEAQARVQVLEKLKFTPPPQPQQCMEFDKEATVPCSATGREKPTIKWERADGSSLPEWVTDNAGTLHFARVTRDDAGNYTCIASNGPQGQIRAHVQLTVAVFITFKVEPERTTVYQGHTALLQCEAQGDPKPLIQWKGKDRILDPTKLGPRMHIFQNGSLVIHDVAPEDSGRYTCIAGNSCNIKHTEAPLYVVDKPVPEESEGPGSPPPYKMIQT", "assay": "flow cytometry", "conditions": "Jurkat cells, on ice, protein on the cell surface, single-stranded DNA"}, "[2]": {"tested_on": "membrane-bound IgM (mIgM, B-cell receptor) on Ramos cells", "assay": "flow cytometry", "conditions": "Ramos cells, on ice, protein on the cell surface, single-stranded DNA"}, "[3]": {"conditions": "5' thiol linked to human IgG1 AKT-Fc N-terminus (hydrazone or oxidative coupling), Fc-M2M2 scrambled control"}}, "note": "Results from cells or extracts need not show a direct contact. No signal at the amounts used counts as a negative. For some assays here: Tags and fusion partners may be left off the protein sequences shown. For some assays here: The exact form of at least one protein or probe is not confirmed.", "data": [{"sequence": "CCCTAGAGTGAGTCGTATGACCCTAGAGTGAGTCGTATGAA [M2M2]", "values": [{"measurement": "binding result", "setting": "[1]; [3]", "result": "no binding"}, {"measurement": "binding result", "setting": "[2]; [3]", "result": "no binding"}]}, {"sequence": "AGGAGGATAGTTCGGTGGCTGTTCAGGGTCTCCTCCT [TD05.1]", "values": [{"measurement": "binding result", "setting": "[1]; 5' thiol linked to human IgG1 AKT-Fc N-terminus (hydrazone or oxidative coupling), Fc-TD05.1 conjugate", "result": "no binding"}, {"measurement": "binding result", "setting": "[2]; 5' thiol linked to human IgG1 AKT-Fc N-terminus (hydrazone or oxidative coupling), Fc-TD05.1 conjugate, 5 mM MgCl2 DPBS with tRNA and BSA, no binding to U266 cells", "result": "binds"}]}, {"sequence": "ATCTAACTGCTGCGCCGCCGGGAAAATACTGTACGGTTAGA [sgc8c anti-HER2 antibody conjugate]", "values": [{"measurement": "binding result", "setting": "[1]; linked to anti-HER2 human IgG1 via N-terminus or lysine by oxidative coupling, antibody-aptamer conjugate, 5 mM MgCl2 DPBS, variant of sgc8c", "result": "binds"}]}, {"sequence": "ATCTAACTGCTGCGCCGCCGGGAAAATACTGTACGGTTAGA [sgc8c]", "values": [{"measurement": "binding result", "setting": "[1]; 5' thiol linked to human IgG1 AKT-Fc N-terminus (hydrazone or oxidative coupling), Fc-sgc8c conjugate, 5 mM MgCl2 DPBS with tRNA and BSA, no binding to U266 cells", "result": "binds"}, {"measurement": "binding result", "setting": "[2]; 5' thiol linked to human IgG1 AKT-Fc N-terminus (hydrazone or oxidative coupling), Fc-sgc8c conjugate", "result": "no binding"}]}, {"sequence": "AGGAGGATAGTTCGGTGGCTGTTCAGGGTCTCCTCCT [TD05.1 anti-HER2 antibody conjugate]", "values": [{"measurement": "binding result", "setting": "[2]; linked to anti-HER2 human IgG1 via N-terminus or lysine by oxidative coupling, antibody-aptamer conjugate, 5 mM MgCl2 DPBS, variant of TD05.1", "result": "binds"}]}]}
